These are yes or no findings as the source states them, for the method shown. In cells and extracts the contact can be indirect. Here binding means that the protein was enriched with, or labelled near, the bait; the list need not be complete. Where a sequence is shown, tags or fusion partners need not be part of it. Values belong to the molecule of their own block, whether it stands above or below them.
Target: T1, FLAG-MTFP1 (Mitochondrial Fission Process 1) (UniProt Q9CRB8)
T1 sequence: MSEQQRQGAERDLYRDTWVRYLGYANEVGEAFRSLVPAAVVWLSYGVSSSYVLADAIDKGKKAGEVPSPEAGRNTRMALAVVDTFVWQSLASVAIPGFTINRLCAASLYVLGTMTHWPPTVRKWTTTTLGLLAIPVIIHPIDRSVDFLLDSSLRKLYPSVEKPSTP
Assay: affinity purification with mass spectrometry; 500 µg cardiac crude mitochondria of FLAG-MTFP1 knock-in mice (WT mice as control) lysed in IP buffer (20 mM HEPES-KOH pH 7.5, 150 mM NaCl, 0.25% Triton X-100); anti-FLAG magnetic beads, 2 h at 4 °C; eluates analysed by LC-MS/MS

By UniProt entry, the sequences of proteins in these tests, tags left out. Residues count along the entry.
UniProt Q8K199: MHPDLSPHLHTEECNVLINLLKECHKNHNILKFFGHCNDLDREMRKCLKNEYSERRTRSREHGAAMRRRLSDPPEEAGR
UniProt Q9Z1P6: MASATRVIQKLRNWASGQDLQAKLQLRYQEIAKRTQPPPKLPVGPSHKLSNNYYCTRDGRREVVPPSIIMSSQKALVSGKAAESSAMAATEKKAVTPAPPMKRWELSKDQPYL
UniProt P03921: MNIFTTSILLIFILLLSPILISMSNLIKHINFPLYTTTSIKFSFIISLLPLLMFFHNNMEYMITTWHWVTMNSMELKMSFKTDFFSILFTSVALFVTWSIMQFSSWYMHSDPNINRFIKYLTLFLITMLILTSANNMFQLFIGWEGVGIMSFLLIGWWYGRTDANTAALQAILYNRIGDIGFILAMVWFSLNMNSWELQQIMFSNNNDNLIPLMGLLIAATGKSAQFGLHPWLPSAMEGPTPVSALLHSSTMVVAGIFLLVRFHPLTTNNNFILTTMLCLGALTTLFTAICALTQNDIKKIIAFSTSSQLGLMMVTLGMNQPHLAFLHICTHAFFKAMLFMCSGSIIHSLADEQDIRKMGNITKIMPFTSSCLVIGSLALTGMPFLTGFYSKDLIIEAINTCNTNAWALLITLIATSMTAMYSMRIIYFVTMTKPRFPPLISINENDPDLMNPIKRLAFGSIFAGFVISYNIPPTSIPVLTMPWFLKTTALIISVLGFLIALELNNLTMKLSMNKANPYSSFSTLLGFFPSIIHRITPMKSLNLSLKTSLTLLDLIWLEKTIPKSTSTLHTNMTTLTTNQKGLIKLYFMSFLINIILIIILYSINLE
UniProt P56392, residues 22-80: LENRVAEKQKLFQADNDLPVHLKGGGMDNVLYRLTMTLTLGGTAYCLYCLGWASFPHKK
UniProt P52503, residues 21-116: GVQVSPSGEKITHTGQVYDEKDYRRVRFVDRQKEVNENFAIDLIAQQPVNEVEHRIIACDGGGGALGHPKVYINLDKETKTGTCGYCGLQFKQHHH
UniProt P56391: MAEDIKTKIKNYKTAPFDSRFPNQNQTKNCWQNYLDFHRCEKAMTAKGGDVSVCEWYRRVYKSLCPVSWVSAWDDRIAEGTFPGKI

binding: binds
Molecule: CMC2 (from UniProt Q8K199 1-79)

binding: binds
B1: NDUFA10 (protein, UniProt Q99LC3 36-355)
chain: LRYGLLAAILGDKTTKKLHEYSRVITVDGNICSGKNKLAKEIAQQLGMKHYPEAGIQYSSTTTGDGRPLDIEFSGSCSLEKFYDDPKSNDGNSYRLQSWLYASRLLQYADALEHLLSTGQGVVLERSIYSDFVFLEAMYNQGYIRKQCVDHYNEIKRLTLPEYLPPHAVIYIDVPVPEVQSRIQKKGDPHEMKVTSAYLQDIENAYKKTFLPKMSEMCEVLVYDSWEAEDPTKVVEDIEYLKYNKGPWLKQDDWTFHYLRMLVQDKTEVLNYTTIPVYLPEITIGAHQGSRIYNSFRELPGRKYAPGYNAEVGDKWIWLK

binding: binds
B2: heat shock protein TRAP1 (protein, UniProt Q9CQN1 61-706)
chain: STQAAEDKEEESLHSIISNTEAVRGSVSKHEFQAETKKLLDIVARSLYSEKEVFIRELISNASDALEKLRHKLVCEGQVLPEMEIHLQTDAKKGTITIQDTGIGMTQEELVSNLGTIARSGSKAFLEALQNQAETSSKIIGQFGVGFYSAFMVADKVEVYSRSAAPESPGYQWLSDGSGVFEIAEASGVRPGTKIIIHLKSDCKDFASESRVQDVVTKYSNFVSFPLYLNGKRINTLQAIWMMDPKDISEFQHEEFYRYIAQAYDKPRFTLHYKTDAPLNIRSIFYVPEMKPSMFDVSRELGSSVALYSRKVLIQTKAADILPKWLRFIRGVVDSEDIPLNLSRELLQESALIRKLRDVLQQRLIKFFIDQSKKDAEKYAKFFEDYGLFMREGIVTTAEQDIKEDIAKLLRYESSALPAGQLTSLPDYASRMQAGTRNIYYLCAPNRHLAEHSPYYEAMKQKHTEVLFCYEQFDELTLLHLREFDKKKLISVETDIVVDHYKEEKFEDTSPADERLSEKETEDLMAWMRNALGSRVTNVKVTFRLDTHPAMVTVLEMGAARHFLRMQQLAKTQEERAQLLQPTLEINPRHTLIKKLCQLRESEPELAQLLVDQIYENAMIAAGLVDDPRAMVGRLNDLLVKVLEKH

binding: binds
B4: ATP5L (protein, UniProt Q9CPQ8 1-103)
chain: MAKFIRNFAEKAPSMVAAAVTYSKPRLATFWHYAKVELVPPTPAEIPTAIQSVKKIIQSAKTGSFKHLTVKEAVLNGLVATEVWMWFYIGEIIGKRGIVGYDV

binding: binds
B8: NDUFB4 (protein, UniProt Q9CQC7 1-129)
chain: MSGSKYKPAPLATLPSTLDPAEYDVSPETRRAQVERLSIRARLKREYLLQYNDPKRVSHIEDPALIRWTYARSANIYPNFRPTPKNSLLGAVAGFGPLIFWYYVFKTDRDRKERLIQEGKLDRKFNISY

Second part, the molecule before the results:

Molecule: NDUFA7 (from UniProt Q9Z1P6 1-113)
binding: binds

Molecule: MTND5 (from UniProt P03921 1-607)
binding: binds

Molecule: COX7A1 (from UniProt P56392 22-80)
binding: binds

Molecule: NDUFS6 (from UniProt P52503 21-116)
binding: binds

Molecule: COX6B1 (from UniProt P56391 1-86)
binding: binds

B3: inorganic phosphate carrier SLC25A3 (protein, UniProt Q8VEM8 46-357)
chain: AVEEYSCEFGSMKYYALCGFGGVLSCGLTHTAVVPLDLVKCRMQVDPQKYKGIFNGFSITLKEDGVRGLAKGWAPTLIGYSMQGLCKFGFYEVFKALYSNILGEENTYLWRTSLYLASSASAEFFADIALAPMEAAKVRIQTQPGYANTLREAVPKMYKEEGLNAFYKGVAPLWMRQIPYTMMKFACFERTVEALYKFVVPKPRSECTKAEQLVVTFVAGYIAGVFCAIVSHPADSVVSVLNKEKGSTASQVLQRLGFRGVWKGLFARIIMIGTLTALQWFIYDSVKVYFRLPRPPPPEMPESLKKKLGLTE
binding: binds

B5: SCO2 (protein, UniProt Q8VCL2 42-255)
chain: QGPGLRTRLLITALFGAGLGWAWLAARAEKEQWRQQQRTEALRQAAVGQGDFSLLDHKGQPRCKADFRGQWVLMYFGFTHCPDICPDELEKLVQVVRKLEAEPDLPLVQPVFITVDPERDDVAAMARYVQEFHPRLLGLTGSTEQVAHASRNYRVYYSAGPKDEDQDYIVDHSIAIYLLNPDGLFTDYYGRSRSAEQIVESIRRHIAAFHSVLP
binding: binds

B6: ADP/ATP translocase ANT1 (protein, UniProt P48962 1-298)
chain: MGDQALSFLKDFLAGGIAAAVSKTAVAPIERVKLLLQVQHASKQISAEKQYKGIIDCVVRIPKEQGFLSFWRGNLANVIRYFPTQALNFAFKDKYKQIFLGGVDRHKQFWRYFAGNLASGGAAGATSLCFVYPLDFARTRLAADVGKGSSQREFNGLGDCLTKIFKSDGLKGLYQGFSVSVQGIIIYRAAYFGVYDTAKGMLPDPKNVHIIVSWMIAQSVTAVAGLVSYPFDTVRRRMMMQSGRKGADIMYTGTLDCWRKIAKDEGANAFFKGAWSNVLRGMGGAFVLVLYDEIKKYV
binding: binds

B7: USMG5 (protein, UniProt Q78IK2 1-58)
chain: MAGAESDGQFQFTGIKKYFNSYTLTGRMNCVLATYGGIALLVLYFKLRPKKTPAVKAT
binding: binds
